Test results: paper PMC3885427
These are yes or no findings as the source states them, for the method shown. For some assays here: In cells and extracts the contact can be indirect. Some binding calls cover weakened binding; strength is not graded here.

Protein sequences, listed by entry. Tags and fused reporters are not part of them. Lines headed by an entry give the natural chain unless they say otherwise; changes in a name come on top. Residues count along the entry.
UniProt O60902: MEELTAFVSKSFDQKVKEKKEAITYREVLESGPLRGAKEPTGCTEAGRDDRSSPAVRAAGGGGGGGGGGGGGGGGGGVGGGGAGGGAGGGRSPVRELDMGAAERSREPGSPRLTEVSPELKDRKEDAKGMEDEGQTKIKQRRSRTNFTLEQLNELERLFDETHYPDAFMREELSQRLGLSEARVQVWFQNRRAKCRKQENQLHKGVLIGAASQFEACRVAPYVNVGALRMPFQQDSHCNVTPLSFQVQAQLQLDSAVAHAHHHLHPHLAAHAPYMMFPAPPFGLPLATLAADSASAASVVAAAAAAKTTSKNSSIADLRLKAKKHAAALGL
SHOX2(139–331), yeast two-hybrid fusion: residues 139-331 of O60902
UniProt O15266: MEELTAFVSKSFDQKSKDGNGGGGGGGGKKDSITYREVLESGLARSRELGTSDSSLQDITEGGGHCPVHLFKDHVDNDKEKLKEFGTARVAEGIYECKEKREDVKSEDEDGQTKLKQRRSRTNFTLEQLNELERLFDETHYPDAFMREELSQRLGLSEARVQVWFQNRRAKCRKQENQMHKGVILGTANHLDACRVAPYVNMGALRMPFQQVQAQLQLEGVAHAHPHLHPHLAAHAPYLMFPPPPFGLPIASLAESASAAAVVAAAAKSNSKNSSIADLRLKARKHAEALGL
UniProt P35711: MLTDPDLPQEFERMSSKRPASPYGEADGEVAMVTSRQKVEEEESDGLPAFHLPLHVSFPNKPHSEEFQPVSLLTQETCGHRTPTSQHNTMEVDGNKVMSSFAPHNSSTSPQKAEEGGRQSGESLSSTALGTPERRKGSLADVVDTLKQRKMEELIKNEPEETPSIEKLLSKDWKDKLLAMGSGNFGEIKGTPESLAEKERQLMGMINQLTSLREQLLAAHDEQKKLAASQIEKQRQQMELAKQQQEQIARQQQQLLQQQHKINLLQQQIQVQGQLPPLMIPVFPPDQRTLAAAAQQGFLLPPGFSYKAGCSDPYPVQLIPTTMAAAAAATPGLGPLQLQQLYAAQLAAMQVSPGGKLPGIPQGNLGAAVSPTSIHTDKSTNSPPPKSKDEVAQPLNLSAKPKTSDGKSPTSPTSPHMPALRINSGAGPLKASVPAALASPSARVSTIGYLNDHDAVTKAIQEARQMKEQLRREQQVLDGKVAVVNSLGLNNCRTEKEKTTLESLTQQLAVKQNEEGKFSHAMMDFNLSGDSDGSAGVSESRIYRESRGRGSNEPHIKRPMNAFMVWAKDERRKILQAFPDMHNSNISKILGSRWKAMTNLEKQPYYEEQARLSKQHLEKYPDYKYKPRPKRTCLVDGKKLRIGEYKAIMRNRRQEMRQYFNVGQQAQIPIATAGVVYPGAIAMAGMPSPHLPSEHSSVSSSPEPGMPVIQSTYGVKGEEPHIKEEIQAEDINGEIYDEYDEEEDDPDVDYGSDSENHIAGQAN

Assays:
[1] = biological target: SHOX2a (called SHOX2 in the paper), full-length, yeast two-hybrid fusion (human) (UniProt O60902); assay: two-hybrid; S. cerevisiae Y187 cotransformed with pGBT9 (GAL4 binding domain) and pACT2 (GAL4 activation domain) fusions; β-galactosidase liquid assay with CRPG as substrate; fragments and mutants given as percent of full-length or wild-type protein; empty vectors as negative controls
[2] = biological target: SHOX (SHOXa), full-length, yeast two-hybrid fusion (human) (UniProt O15266); assay: as above
FLAG:SHOX2 (human) = FLAG:SHOX2 (human) (UniProt O60902); assay: co-IP; nuclear extracts of HEK293 cells overexpressing FLAG:SHOX2 and HA:SOX5, HA:SOX6 or HA:SHOX, immunoprecipitated with anti-FLAG-agarose; blots probed with SHOX2, SOX5, SOX6 and SHOX antibodies; cells with the HA protein only as negative controls
[3] = biological target: SHOX p.A170P, yeast two-hybrid fusion (human) (UniProt O15266); assay: two-hybrid; S. cerevisiae Y187 cotransformed with pGBT9 (GAL4 binding domain) and pACT2 (GAL4 activation domain) fusions; β-galactosidase liquid assay with CRPG as substrate; fragments and mutants given as percent of full-length or wild-type protein; empty vectors as negative controls
[4] = biological target: SHOX p.D278A, yeast two-hybrid fusion (human) (UniProt O15266); assay: as above
[5] = biological target: SHOX p.L132V, yeast two-hybrid fusion (human) (UniProt O15266); assay: as above
[6] = biological target: SOX5, yeast two-hybrid fusion (UniProt P35711); assay: as above

In the case of “SHOX2 p.A193P, yeast two-hybrid fusion (from UniProt O60902-1 1-331)”, the binding [1] is reported as “binds”.
With “SHOX2 p.R319P, yeast two-hybrid fusion (from UniProt O60902-1 1-331)” the binding [1] was “binds”.
In the case of “SHOX2(139–331), yeast two-hybrid fusion (from UniProt O60902-1 139-331) (domain or fragment)”, the binding [2] is reported as “binds” and the binding [1] is reported as “binds”.
For HA:SOX5 (from UniProt P35711 1-763), the binding (FLAG:SHOX2 (human)) was “binds”.
With “SHOX2 p.L155V, yeast two-hybrid fusion (from UniProt O60902-1 1-331)” the binding [1] was “binds”.
In the case of “SHOX2a (called SHOX2 in the paper), full-length, yeast two-hybrid fusion (from UniProt O60902-1 1-331)”, the binding [2] is reported as “binds”, the binding [3] is reported as “binds” and the binding [4] is reported as “binds”. The binding [5] was “binds”, the binding [1] was “binds” and the binding [6] was “binds weakly”.
“SHOX2 p.R196C, yeast two-hybrid fusion (from UniProt O60902-1 1-331)” was tested, and the binding [1] was “binds”.
For HA:SHOX (from UniProt O15266 1-292), the binding (FLAG:SHOX2 (human)) was “binds”.
